The target of this test is T1, C-reactive protein (CRP) (human) (UniProt P02741).
T1 sequence: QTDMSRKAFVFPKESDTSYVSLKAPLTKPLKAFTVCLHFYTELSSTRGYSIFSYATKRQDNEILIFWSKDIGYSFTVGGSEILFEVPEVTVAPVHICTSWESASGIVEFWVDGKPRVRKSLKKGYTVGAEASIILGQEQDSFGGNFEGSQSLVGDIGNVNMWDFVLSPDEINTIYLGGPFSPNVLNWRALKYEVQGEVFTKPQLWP
Briefly: affinity purification with mass spectrometry; plasma (hirudin) of one donor with vehicle or 40 µg/ml purified CRP incubated with MSU crystals (90 mg/ml) 45 min at 37 °C; bound proteins eluted in SDS buffer, whole gel lanes digested, LC-MS, MaxQuant; proteins compared with and without CRP; only the target purified.

Here are results for 2 substances from publication PMC7156728.

No constants are given. Whether binding was seen depends on the method and setting. In cells and extracts the contact can be indirect. These calls come from enrichment with a bait or labelling near it, and not all partners need be listed.

Turning to “complement component C1s (human (endogenous in serum and plasma)) (enzyme)”, the binding result is “binds”.
With “complement component C1r (human (endogenous in serum and plasma)) (enzyme)”, the binding entry is given as “binds”.
